Data: paper doi:10.1101/2020.09.18.303016
Where two headings read alike, the source gives them in different places. Results are given in words; binding and its absence hold for the method and conditions named. Binding seen in cells or lysates may run through a third protein. Some binding calls cover weakened binding; strength is not graded here. For some assays here: Where a sequence is shown, tags or fusion partners need not be part of it.

Sequences of proteins named here, by UniProt entry; tags and fusion partners are left off. Residues count along the entry.
UniProt P25054, residues 221-880: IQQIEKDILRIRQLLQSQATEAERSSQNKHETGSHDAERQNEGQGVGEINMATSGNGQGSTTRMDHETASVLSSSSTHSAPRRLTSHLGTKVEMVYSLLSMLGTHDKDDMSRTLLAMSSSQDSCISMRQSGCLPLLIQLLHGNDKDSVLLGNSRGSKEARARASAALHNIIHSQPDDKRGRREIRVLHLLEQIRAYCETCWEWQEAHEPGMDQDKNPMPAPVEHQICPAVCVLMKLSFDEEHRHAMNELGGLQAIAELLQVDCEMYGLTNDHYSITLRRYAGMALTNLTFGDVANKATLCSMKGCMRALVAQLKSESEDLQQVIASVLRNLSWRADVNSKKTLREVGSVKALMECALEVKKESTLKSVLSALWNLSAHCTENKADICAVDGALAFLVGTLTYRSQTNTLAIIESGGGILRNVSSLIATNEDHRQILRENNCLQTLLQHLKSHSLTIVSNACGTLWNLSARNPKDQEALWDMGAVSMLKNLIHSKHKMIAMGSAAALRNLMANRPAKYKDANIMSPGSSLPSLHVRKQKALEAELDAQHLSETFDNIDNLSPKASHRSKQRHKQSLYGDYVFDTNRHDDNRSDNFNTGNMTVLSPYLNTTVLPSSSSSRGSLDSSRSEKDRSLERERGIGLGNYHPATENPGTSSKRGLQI
UniProt O15169, residues 600-862: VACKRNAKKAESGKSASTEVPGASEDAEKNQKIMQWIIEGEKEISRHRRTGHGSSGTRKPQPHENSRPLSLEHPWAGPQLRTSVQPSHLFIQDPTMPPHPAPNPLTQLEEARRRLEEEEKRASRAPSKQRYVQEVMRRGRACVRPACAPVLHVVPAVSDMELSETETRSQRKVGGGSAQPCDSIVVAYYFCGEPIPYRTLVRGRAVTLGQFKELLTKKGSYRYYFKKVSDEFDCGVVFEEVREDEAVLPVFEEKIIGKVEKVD

Tests used:
[1] = target: GST-APC-221-880 (APC arm) (human) (UniProt P25054); assay: pull-down
[2] = target: GST-APC-221-880 (APC arm) (human) (UniProt P25054); assay: pull-down; remark: listed apart in the source

binding [1]	binding [2]	Molecule
binds		FLAG-tagged AXIN1-DIX(600-862) (from UniProt O15169-1 600-862) (domain or fragment)
	binds	AURKA, in vitro transcription/translation product (HA-AURKA and FLAG-AURKA) (enzyme, UniProt O14965 1-403) MDRSKENCISGPVKATAPVGGPKRVLVTQQFPCQNPLPVNSGQAQRVLCPSNSSQRIPLQAQKLVSSHKPVQNQKQKQLQATSVPHPVSRPLNNTQKSKQPLPSAPENNPEEELASKQKNEESKKRQWALEDFEIGRPLGKGKFGNVYLAREKQSKFILALKVLFKAQLEKAGVEHQLRREVEIQSHLRHPNILRLYGYFHDATRVYLILEYAPLGTVYRELQKLSKFDEQRTATYITELANALSYCHSKRVIHRDIKPENLLLGSAGELKIADFGWSVHAPSSRRTTLCGTLDYLPPEMIEGRMHDEKVDLWSLGVLCYEFLVGKPPFEANTYQETYKRISRVEFTFPDFVTEGARDLISRLLKHNPSQRPMLREVLEHPWITANSSKPSNCQNKESASKQS
